Taken from: PubChem BioAssay AID1508588 (Peter MacCallum Cancer Centre, 2020)
Assay: 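Genome-wide search for knock-downs that heighten vemurafenib action in melanoma cells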 (primary screen). Cells: human WM266.4 melanoma cells (BRAF V600 mutant). Reagent: siRNA pool against human genes, 40 nM. Time to read-out: 96 h from transfection to read-out. Challenge: vemurafenib 300 nM (about IC25), added 48 h after transfection, for 48 h; comparison arm got DMSO vehicle only. Read-out: 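Cell gain (DAPI nuclei at end minus before drug, mean of two replicates) and medium lactate by absorbance per cell, both as ratio to non-targeting siRNA, also grouped into fold-change classes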. Reading the numbers: cell gain with vemurafenib: higher = more cell gain than with non-targeting siRNA; lactate per cell with vemurafenib: higher = more lactate made per cell. Rule for the call: 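Enhancement is called by pairing each knock-down's vehicle-arm and drug-arm fold-change classes for viability or glycolysis; which class combinations qualify is not given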. Meaning of the calls: active = enhances vemurafenib effect; inactive = no enhancement seen.
This is one part, drawn at random, of about 18,000 deposited reagents. 790 of all reagents (4.4%) were called active. 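Calls rest on a combination of fold-change classes in drug and vehicle arms, not all shown here.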 Some reagents were tested in more than one well and are listed for each.

target | cell gain with vemurafenib | lactate per cell with vemurafenib | activity call
RIMS3 (regulating synaptic membrane exocytosis 3) | 0.52 | 1.32 | inactive
TVP23C (trans-golgi network vesicle protein 23 homolog C) | 0.01 | 3.26 | inactive
PHYHIP (phytanoyl-CoA 2-hydroxylase interacting protein) | 0.18 | 0.85 | inactive
CLEC16A (C-type lectin domain containing 16A) | 1.25 | 0.64 | inactive
SNAPC4 (small nuclear RNA activating complex polypeptide 4) | 0.12 | 0.94 | inactive
SERPINB1 (serpin family B member 1) | 0.01 | 2.04 | inactive
SLCO1B1 | 0.44 | 0.58 | inactive
APAF1 (apoptotic peptidase activating factor 1) | 0.13 | 0.5 | inactive
AREG (amphiregulin) | 0.55 | 0.42 | active
ZKSCAN7 (zinc finger with KRAB and SCAN domains 7) | 0.51 | 0.7 | inactive
STK26 (serine/threonine kinase 26) | 0.85 | 1.1 | inactive
PSAP (prosaposin) | 0.74 | 1.64 | inactive
NPIPA1 (nuclear pore complex interacting protein family member A1) | 0.84 | 0.8 | inactive
ARSL (arylsulfatase L) | 0.52 | 1.14 | inactive
NOAZFP (nucleolar atypical zinc finger) | 0.99 | 0.88 | inactive
DHX38 (DEAH-box helicase 38) | 0.57 | 0.82 | inactive
OPRL1 (opioid related nociceptin receptor 1) | 0.35 | 1.44 | inactive
SLC25A35 | 0.96 | 0.15 | active
PLEKHH2 (pleckstrin homology, MyTH4 and FERM domain containing H2) | 0.52 | 0.75 | inactive
SSMEM1 (serine rich single-pass membrane protein 1) | 0.46 | 0.3 | inactive
ADAMTSL3 (ADAMTS like 3) | 0.16 | 2.38 | inactive
WBP1L (WW domain binding protein 1 like) | 0.57 | 0.86 | inactive
EXOG (exo/endonuclease G) | 0.4 | 0.68 | inactive
PPP5C (protein phosphatase 5 catalytic subunit) | 0.54 | 1.32 | inactive
RARRES1 (retinoic acid receptor responder 1) | 0.18 | 1.9 | inactive
CAVIN4 (caveolae associated protein 4) | 0.45 | 1.02 | inactive
LIAS (lipoic acid synthetase) | 0.87 | 0.77 | inactive
NGLY1 (N-glycanase 1) | 0.72 | 0.42 | inactive
SIAE (sialic acid acetylesterase) | 0.52 | 1.15 | inactive
CCN4 (cellular communication network factor 4) | 0.72 | 1.45 | inactive
LIPI (lipase I) | 0.75 | 1.17 | inactive
AHDC1 (AT-hook DNA binding motif containing 1) | 0.16 | 0.68 | inactive
SUCLG2 (succinate-CoA ligase GDP-forming subunit beta) | 0.28 | 1.58 | inactive
H3-4 (H3.4 histone, cluster member) | 0.4 | 0.86 | inactive
PIGC (phosphatidylinositol glycan anchor biosynthesis class C) | 1.09 | 0.8 | inactive
LOC155060 (AI894139 pseudogene) | 0.9 | 0.8 | inactive
SLC2A5 | 0.37 | 0.88 | inactive
H1-0 (H1.0 linker histone) | 0.81 | 0.72 | inactive
ZBTB16 (zinc finger and BTB domain containing 16) | 0.33 | 0.98 | inactive
ARMCX6 (armadillo repeat containing X-linked 6) | 1.16 | 0.58 | inactive
LHX3 (LIM homeobox 3) | 0.53 | 0.66 | inactive
NUDT16L1 (nudix hydrolase 16 like 1) | 0.42 | 0.79 | inactive
SLC7A13 | 0.64 | 1.65 | inactive
CHST4 (carbohydrate sulfotransferase 4) | 0.61 | 0.7 | inactive
ATP13A4 (ATPase 13A4) | 0.42 | 2.44 | inactive
ZNF354A (zinc finger protein 354A) | 0.79 | 0.51 | inactive
GTF2A1L (general transcription factor IIA subunit 1 like) | 0.74 | 1.4 | inactive
LUC7L (LUC7 like) | 0.16 | 3.02 | inactive
SIRPG (signal regulatory protein gamma) | 0.57 | 1.8 | inactive

The list goes on (6 carried over from the part before).
target | cell gain with vemurafenib | lactate per cell with vemurafenib | activity call
CHST4 (carbohydrate sulfotransferase 4) | 0.61 | 0.7 | inactive
ATP13A4 (ATPase 13A4) | 0.42 | 2.44 | inactive
ZNF354A (zinc finger protein 354A) | 0.79 | 0.51 | inactive
GTF2A1L (general transcription factor IIA subunit 1 like) | 0.74 | 1.4 | inactive
LUC7L (LUC7 like) | 0.16 | 3.02 | inactive
SIRPG (signal regulatory protein gamma) | 0.57 | 1.8 | inactive
FAP (fibroblast activation protein alpha) | 0.62 | 0.5 | inactive
PLS1 (plastin 1) | 0.84 | 0.72 | inactive
SIMC1 (SUMO interacting motifs containing 1) | 0.61 | 1.12 | inactive
FBXW9 (F-box and WD repeat domain containing 9) | 0.65 | 0.52 | inactive
DRD2 (dopamine receptor D2) | 0.58 | 0.75 | inactive
CHRNB3 (cholinergic receptor nicotinic beta 3 subunit) | 0.81 | 0.54 | inactive
ESPN (espin) | 0.23 | 1.56 | inactive
ZNF268 (zinc finger protein 268) | 0.15 | 0.8 | inactive
SECISBP2L (SECIS binding protein 2 like) | 0.89 | 0.63 | inactive
GPR160 (G protein-coupled receptor 160) | 0.99 | 0.73 | inactive
OR2T33 (olfactory receptor family 2 subfamily T member 33) | 0.39 | 0.27 | inactive
EDDM3A (epididymal protein 3A) | 0.26 | 0.22 | inactive
ZSCAN20 (zinc finger and SCAN domain containing 20) | 0.56 | 1.06 | inactive
MAP2K4 (mitogen-activated protein kinase kinase 4) | 0.73 | 1 | inactive
DESI2 (desumoylating isopeptidase 2) | 0.91 | 1.36 | inactive
MAP3K20 (mitogen-activated protein kinase kinase kinase 20) | 1.37 | 0.6 | inactive
NCCRP1 (NCCRP1, F-box associated domain containing) | 0.69 | 0.8 | inactive
CACHD1 (cache domain containing 1) | 0.92 | 0.58 | inactive
ZFAND2B (zinc finger AN1-type containing 2B) | 0.15 | 2.5 | inactive
ZC2HC1C (zinc finger C2HC-type containing 1C) | 0.53 | 1.1 | inactive
TNFAIP3 (TNF alpha induced protein 3) | 0.96 | 0.64 | inactive
TNFAIP3 (TNF alpha induced protein 3) | 0.49 | 0.97 | inactive
SPPL3 (signal peptide peptidase like 3) | 0.77 | 0.91 | inactive
STXBP5 (syntaxin binding protein 5) | 0.84 | 0.49 | inactive
PSMD7 (proteasome 26S subunit, non-ATPase 7) | -0.13 | 2.45 | inactive
DDX11 (DEAD/H-box helicase 11) | 0.64 | 0.14 | inactive
DSG3 (desmoglein 3) | 0.28 | 0.99 | inactive
RPS6KA3 (ribosomal protein S6 kinase A3) | 0.78 | 0.76 | inactive
ACKR4 (atypical chemokine receptor 4) | 0.57 | 0.52 | inactive
ACOT13 (acyl-CoA thioesterase 13) | 1.14 | 0.52 | inactive
GOLGA6A (golgin A6 family member A) | 1.2 | 0.96 | inactive
MRPL57 (mitochondrial ribosomal protein L57) | 0.46 | 0.4 | active
MAML2 (mastermind like transcriptional coactivator 2) | 0.2 | 1.24 | inactive
TFRC (transferrin receptor) | 0.45 | 1.88 | inactive
CIRSR (corepressor of RBPJ and splicing regulator) | 0.15 | 0.36 | active
